Source: patent US20060280894A1, “Metal complexes as light-absorbing compounds in the information layer of optical data carriers” (priority 2003, published 2006)
Read-outs that look alike come from different tables or passages of the source. At least one structure is not confirmed: it was looked up by name or label, or the drawing left a doubt. Marks after values point to notes of the source that are not given here.

Assay: Absorption spectrum measured in solution

Row | Compound | λmax (in methanol) | λmax
1 | CCCNS(=O)(=O)[N-]c1cc(N(CC)CC)ccc1N=Nc1nc(C#N)c(C#N)[nH]1.CCCNS(=O)(=O)[N-]c1cc(N(CC)CC)ccc1N=Nc1nc(C#N)c(C#N)[nH]1.[Ni+2] [Example 6] | 522, 545^4) nm | 
2 | CCN(CC)c1ccc(N=Nc2nc(C#N)c(C#N)n2C)c([N-]S(=O)(=O)N(C)C)c1.CCN(CC)c1ccc(N=Nc2nc(C#N)c(C#N)n2C)c([N-]S(=O)(=O)N(C)C)c1.[Zn+2] [Example 17] |  | 538, 571 nm
3 | CCN(CC)c1ccc(N=Nc2nc(-c3ccccc3)ns2)c([N]([Ni][N](c2cc(N(CC)CC)ccc2N=Nc2nc(-c3ccccc3)ns2)S(=O)(=O)Nc2c(F)c(F)c(F)c(F)c2F)S(=O)(=O)Nc2c(F)c(F)c(F)c(F)c2F)c1 [Example 39] |  | 549, 577 nm
